Results on one substance are retold here after article PMC8117511.

By UniProt entry, the sequences of proteins in these tests, tags left out.
UniProt Q04206: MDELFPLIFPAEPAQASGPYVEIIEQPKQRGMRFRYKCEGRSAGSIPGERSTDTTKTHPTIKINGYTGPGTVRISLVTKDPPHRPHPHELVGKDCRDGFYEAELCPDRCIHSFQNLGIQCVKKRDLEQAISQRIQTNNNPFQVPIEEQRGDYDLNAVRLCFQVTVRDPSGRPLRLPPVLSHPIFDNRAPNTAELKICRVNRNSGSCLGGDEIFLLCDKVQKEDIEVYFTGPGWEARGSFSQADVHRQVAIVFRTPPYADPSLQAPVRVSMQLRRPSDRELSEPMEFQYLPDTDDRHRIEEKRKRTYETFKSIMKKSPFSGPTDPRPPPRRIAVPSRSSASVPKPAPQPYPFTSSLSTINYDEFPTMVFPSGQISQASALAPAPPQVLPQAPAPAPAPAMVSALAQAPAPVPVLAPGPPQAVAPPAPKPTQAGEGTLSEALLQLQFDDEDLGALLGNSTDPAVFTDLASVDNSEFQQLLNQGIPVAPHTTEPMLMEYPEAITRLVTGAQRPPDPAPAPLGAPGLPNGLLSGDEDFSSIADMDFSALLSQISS
UniProt O95863: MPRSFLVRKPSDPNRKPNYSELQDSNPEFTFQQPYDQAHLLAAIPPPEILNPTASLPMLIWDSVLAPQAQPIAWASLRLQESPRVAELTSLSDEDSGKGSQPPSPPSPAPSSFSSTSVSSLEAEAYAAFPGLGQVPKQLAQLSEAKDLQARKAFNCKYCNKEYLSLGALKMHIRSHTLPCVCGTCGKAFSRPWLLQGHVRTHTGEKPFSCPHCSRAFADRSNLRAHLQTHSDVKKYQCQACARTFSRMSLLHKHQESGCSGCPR

These are yes or no findings as the source states them, for the method shown. For some assays here: In cells and extracts the contact can be indirect. Some results given as binding are weak or reduced against the parent protein; the word gives no strength.

The target of experiment [1] is P65, a NF-κB subunit (human (endogenous in human cell lines RKO, DLD1)) (UniProt Q04206). Nature of the experiment: co-IP; whole cell extracts in IP lysis buffer with PMSF; Protein G magnetic beads with anti-P65 or anti-Snail antibody, overnight at 4°C; washed with PBS + 0.1% Tween 20; western blotting; cells treated with or without LPS. (Immunoblotting shows a protein as a band on a membrane.)

Experiment [2] shares this target. Nature of the experiment: ChIP-reChIP; Re-ChIP-IT kit; first ChIP with P65 antibody, second ChIP with Snail antibody; HK3 promoter chromatin detected by semi-quantitative PCR; cells treated with or without LPS.

On to Snail (from UniProt O95863 1-264), for which the binding entry in experiment [1] and in experiment [2] was “binds” each time.
